Data from paper PMC9243424.
Results are given in words; binding and its absence hold for the method and conditions named. Binding seen in cells or lysates may run through a third protein. Some binding calls cover weakened binding; strength is not graded here.

Amino acid sequences for entries named in this document (tags omitted).
UniProt P51532: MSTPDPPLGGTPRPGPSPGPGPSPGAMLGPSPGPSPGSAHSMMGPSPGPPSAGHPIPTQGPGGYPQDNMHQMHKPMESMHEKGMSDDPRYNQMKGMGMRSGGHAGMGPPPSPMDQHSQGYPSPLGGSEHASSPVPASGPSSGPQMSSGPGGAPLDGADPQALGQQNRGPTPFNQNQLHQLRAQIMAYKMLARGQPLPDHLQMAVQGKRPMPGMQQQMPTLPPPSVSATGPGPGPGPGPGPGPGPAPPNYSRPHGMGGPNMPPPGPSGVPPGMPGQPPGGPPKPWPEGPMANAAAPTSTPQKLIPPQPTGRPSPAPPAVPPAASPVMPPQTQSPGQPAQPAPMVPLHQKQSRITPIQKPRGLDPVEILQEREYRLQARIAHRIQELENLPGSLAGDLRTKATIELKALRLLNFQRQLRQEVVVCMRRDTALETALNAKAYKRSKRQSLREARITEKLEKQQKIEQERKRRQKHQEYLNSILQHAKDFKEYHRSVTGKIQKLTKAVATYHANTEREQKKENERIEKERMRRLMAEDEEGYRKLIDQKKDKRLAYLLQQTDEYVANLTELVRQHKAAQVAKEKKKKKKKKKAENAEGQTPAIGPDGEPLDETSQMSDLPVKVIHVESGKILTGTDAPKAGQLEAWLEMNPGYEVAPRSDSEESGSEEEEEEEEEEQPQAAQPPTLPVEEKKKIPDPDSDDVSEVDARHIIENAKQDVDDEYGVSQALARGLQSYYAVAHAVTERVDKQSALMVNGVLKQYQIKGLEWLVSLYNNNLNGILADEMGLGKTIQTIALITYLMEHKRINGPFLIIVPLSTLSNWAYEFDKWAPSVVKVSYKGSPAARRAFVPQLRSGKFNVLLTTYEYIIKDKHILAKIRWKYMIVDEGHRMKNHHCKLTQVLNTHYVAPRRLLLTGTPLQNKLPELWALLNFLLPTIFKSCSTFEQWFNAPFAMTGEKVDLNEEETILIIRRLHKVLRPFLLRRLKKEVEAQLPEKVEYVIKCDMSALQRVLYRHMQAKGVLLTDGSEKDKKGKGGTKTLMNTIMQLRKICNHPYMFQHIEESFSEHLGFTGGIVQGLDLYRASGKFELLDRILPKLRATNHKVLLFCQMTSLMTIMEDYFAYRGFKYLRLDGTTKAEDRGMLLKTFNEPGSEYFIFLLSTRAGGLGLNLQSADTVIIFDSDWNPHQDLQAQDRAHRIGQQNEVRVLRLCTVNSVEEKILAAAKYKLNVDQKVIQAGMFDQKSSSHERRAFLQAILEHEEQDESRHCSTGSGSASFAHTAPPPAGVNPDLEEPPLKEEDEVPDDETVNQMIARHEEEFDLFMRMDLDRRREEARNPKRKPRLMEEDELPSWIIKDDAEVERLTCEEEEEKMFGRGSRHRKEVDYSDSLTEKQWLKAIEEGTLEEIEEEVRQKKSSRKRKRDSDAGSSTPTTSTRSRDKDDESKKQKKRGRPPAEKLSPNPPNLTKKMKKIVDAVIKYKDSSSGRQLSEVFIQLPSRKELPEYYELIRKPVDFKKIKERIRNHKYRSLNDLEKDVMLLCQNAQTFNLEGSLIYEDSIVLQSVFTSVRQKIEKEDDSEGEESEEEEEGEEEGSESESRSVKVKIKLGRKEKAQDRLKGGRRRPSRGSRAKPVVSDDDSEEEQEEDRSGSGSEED

Molecular target: T1, SMARCAL1 (human (endogenous in HeLa)) (UniProt Q9NZC9)
T1 sequence: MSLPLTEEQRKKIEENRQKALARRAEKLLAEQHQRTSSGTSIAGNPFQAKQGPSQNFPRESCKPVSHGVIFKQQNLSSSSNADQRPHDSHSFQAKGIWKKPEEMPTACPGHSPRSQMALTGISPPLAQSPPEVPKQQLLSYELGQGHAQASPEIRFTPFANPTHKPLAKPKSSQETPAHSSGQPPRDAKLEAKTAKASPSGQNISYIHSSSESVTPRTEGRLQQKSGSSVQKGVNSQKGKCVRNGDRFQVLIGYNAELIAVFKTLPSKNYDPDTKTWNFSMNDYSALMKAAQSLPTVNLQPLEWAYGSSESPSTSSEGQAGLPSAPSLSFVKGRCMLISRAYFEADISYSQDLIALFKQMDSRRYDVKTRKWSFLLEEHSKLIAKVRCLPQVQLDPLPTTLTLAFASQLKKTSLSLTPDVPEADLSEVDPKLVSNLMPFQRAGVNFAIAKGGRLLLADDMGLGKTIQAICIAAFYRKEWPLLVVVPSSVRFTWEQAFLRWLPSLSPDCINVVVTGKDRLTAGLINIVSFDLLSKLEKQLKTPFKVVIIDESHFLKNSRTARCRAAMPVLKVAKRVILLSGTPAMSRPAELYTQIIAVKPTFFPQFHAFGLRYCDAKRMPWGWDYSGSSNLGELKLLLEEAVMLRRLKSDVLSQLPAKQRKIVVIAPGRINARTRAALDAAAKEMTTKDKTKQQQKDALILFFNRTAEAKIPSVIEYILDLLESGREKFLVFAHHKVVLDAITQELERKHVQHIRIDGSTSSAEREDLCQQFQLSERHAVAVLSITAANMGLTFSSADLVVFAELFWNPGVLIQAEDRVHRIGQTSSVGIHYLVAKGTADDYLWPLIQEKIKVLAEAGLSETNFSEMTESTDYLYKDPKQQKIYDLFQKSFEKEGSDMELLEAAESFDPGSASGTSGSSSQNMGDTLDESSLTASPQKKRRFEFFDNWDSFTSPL
Experiment: co-IP; HeLa extracts in RIPA buffer (250 mM NaCl, 50 mM Tris.Cl pH 8.0, 2 mM EDTA, 1% NP-40); anti-SMARCAL1 or anti-BRG1, protein G beads, 4°C, 16 h; cells untreated or treated with 2 μM doxorubicin for 10 min; IgG as negative control; western blot for both proteins

BRG1 (from UniProt P51532 1-1647)
binding: binds
